Source: doi:10.1101/2025.11.23.689998
These are yes or no findings as the source states them, for the method shown. Binding seen in cells or lysates may run through a third protein. These calls come from enrichment with a bait or labelling near it, and not all partners need be listed.

The chains behind the UniProt entries cited, without tags or fusion partners.
UniProt Q9FIJ0: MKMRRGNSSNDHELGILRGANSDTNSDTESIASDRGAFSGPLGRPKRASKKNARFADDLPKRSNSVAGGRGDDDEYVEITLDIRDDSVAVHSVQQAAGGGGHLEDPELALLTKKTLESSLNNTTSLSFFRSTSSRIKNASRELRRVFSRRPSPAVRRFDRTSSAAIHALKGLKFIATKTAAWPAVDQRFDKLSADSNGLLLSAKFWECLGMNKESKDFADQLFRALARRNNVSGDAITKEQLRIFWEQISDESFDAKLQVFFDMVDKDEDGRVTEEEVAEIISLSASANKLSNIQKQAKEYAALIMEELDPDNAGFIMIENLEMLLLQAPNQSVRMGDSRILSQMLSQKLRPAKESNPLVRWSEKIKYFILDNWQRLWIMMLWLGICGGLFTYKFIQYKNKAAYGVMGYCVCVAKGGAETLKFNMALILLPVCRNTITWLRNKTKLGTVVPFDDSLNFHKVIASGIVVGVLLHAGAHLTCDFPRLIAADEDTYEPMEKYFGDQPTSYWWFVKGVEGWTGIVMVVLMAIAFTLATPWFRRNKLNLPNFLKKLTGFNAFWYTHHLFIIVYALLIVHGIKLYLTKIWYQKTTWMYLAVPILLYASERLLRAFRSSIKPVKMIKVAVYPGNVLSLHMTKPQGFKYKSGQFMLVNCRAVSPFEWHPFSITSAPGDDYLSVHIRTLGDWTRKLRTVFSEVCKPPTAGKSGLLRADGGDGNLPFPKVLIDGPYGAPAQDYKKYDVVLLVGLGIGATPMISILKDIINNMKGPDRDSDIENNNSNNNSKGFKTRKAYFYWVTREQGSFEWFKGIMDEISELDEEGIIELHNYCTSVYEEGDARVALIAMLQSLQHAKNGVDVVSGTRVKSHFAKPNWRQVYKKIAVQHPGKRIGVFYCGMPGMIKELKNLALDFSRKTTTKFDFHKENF

B1: CALCIUM-BINDING PROTEIN CML13 (protein, UniProt Q94AZ4 1-148)
chain: MGKDGLSDDQVSSMKEAFMLFDTDGDGKIAPSELGILMRSLGGNPTQAQLKSIIASENLSSPFDFNRFLDLMAKHLKTEPFDRQLRDAFKVLDKEGTGFVAVADLRHILTSIGEKLEPNEFDEWIKEVDVGSDGKIRYEDFIARMVAK
B2: SERINE/THREONINE-PROTEIN KINASE BSK4 (At1g01740) (enzyme, UniProt F4HU55 1-483)
chain: MGGQSSKIGTCCSHKTTALEAPDVENKENGEVNGVHSFREYSLEQLKIATSCFALENVVSEHGETAPNVVYQGKLENHMKIAIKRFSGTAWPDPRQFLEEARLVGQLRSKRMANLLGYCCEGGERLLVAEFMPNETLAKHLFHWDTEPMKWAMRLRVALYISEALEYCSNNGHTLYHDLNAYRVLFDEECNPRLSTFGLMKNSRDGKSYSTNLAFTPPEYLRTGRITAESVIYSFGTLLLDLLTGKHIPPSHALDLIRDRNLQTLTDSCLEGQFSDSDGTELVRLTSCCLQYEARERPNIKSLVTALISLQKDTEVLSHVLMGLPQSGTFASPPSPFAEACSGKDLTSMVEILEKIGYKDDEDLSFMWTEQMQEAINSKKKGDIAFRRKDFSEAIEFYTQFLDLGMISATVLVRRSQSYLMSNMAKEALDDAMKAQGISPVWYVALYLQSAALSVLGMEKESQIALTEGSILEARKISASTQN
B3: protein involved in RBOHD recycling via clathrin mediated endocytosis (At2g40060) (protein, UniProt O04209 1-258)
chain: MSAFEDDSFVILNDDASESVPVSGSFDATDSFSAFDGSLQVEDSVDDVFAAPSSDYGAYSNGDGIFGSNGDHDGPILPPPSEMESDEGFALREWRRQNAIQLEEKEKREKELLKQIIEEADQYKEEFHKKIEVTCENNKAANREKEKLYLENQEKFYAESSKNYWKAIAELVPKEVPTIEKRRGKKEQQDPKKPTVSVIQGPKPGKPTDLTRMRQILVKLKHNPPSHLKLTSQPPSEEAAAPPKNVPETKPTEAVTAA
B4: LEUCINE-RICH REPEAT (LRR) like receptor At1g53430 (receptor, UniProt C0LGG8 29-1038)
chain: QLLPEDEVQTLRTIFRKLQNQTVNIERTSCSDQNWNFVVESASNSPTSNITCDCTFNASSVCRVTNIQLKSFSLPGIFPPEFGNLTRLREIDLSRNFLNGTIPTTLSQIPLEILSVIGNRLSGPFPPQLGDITTLTDVNLETNLFTGPLPRNLGNLRSLKELLLSANNFTGQIPESLSNLKNLTEFRIDGNSLSGKIPDFIGNWTLLERLDLQGTSMEGPIPPSISNLTNLTELRITDLRGQAAFSFPDLRNLMKMKRLVLRNCLIRGPIPEYIGSMSELKTLDLSSNMLTGVIPDTFRNLDAFNFMFLNNNSLTGPVPQFIINSKENLDLSDNNFTQPPTLSCNQLDVNLISSYPSVTDNSVQWCLREGLPCPEDAKQSSLFINCGGSRLKIGKDTYTDDLNSRGQSTFSSVSERWGYSSSGVWLGKEDAGYLATDRFNLINGSTPEYYKTARLSPQSLKYYGLCLRRGSYKLQLHFAEIMFSNDQTFNSLGRRIFDIYVQGNLLERDFNIAERAGGVGKPFIRQIDGVQVNGSTLEIHLQWTGKGTNVIPTRGVYGPLISAITITPNFKVDTGKPLSNGAVAGIVIAACAVFGLLVLVILRLTGYLGGKEVDENEELRGLDLQTGSFTLKQIKRATNNFDPENKIGEGGFGPVYKGVLADGMTIAVKQLSSKSKQGNREFVTEIGMISALQHPNLVKLYGCCIEGKELLLVYEYLENNSLARALFGTEKQRLHLDWSTRNKICIGIAKGLAYLHEESRLKIVHRDIKATNVLLDLSLNAKISDFGLAKLNDDENTHISTRIAGTIGYMAPEYAMRGYLTDKADVYSFGVVCLEIVSGKSNTNYRPKEEFVYLLDWAYVLQEQGSLLELVDPDLGTSFSKKEAMRMLNIALLCTNPSPTLRPPMSSVVSMLEGKIKVQPPLVKREADPSGSAAMRFKALELLSQDSESQVSTYARNREQDISSSSMDGPWVDSSFSEPGKDVSLQQQEEGRSSSSSRKLLDDLTDVKIE
B5: SERINE/THREONINE-PROTEIN PHOSPHATASE 2A (At3g25800) (protein, UniProt Q38950 1-587)
chain: MSMIDEPLYPIAVLIDELKNDDIQLRLNSIRRLSTIARALGEERTRKELIPFLSENNDDDDEVLLAMAEELGVFIPYVGGVEYAHVLLPPLETLSTVEETCVREKAVESLCRVGSQMRESDLVDHFISLVKRLAAGEWFTARVSACGVFHIAYPSAPDMLKTELRSLYTQLCQDDMPMVRRAAATNLGKFAATVESAHLKTDVMSMFEDLTQDDQDSVRLLAVEGCAALGKLLEPQDCVQHILPVIVNFSQDKSWRVRYMVANQLYELCEAVGPEPTRTELVPAYVRLLRDNEAEVRIAAAGKVTKFCRILNPEIAIQHILPCVKELSSDSSQHVRSALASVIMGMAPVLGKDATIEHLLPIFLSLLKDEFPDVRLNIISKLDQVNQVIGIDLLSQSLLPAIVELAEDRHWRVRLAIIEYIPLLASQLGVGFFDDKLGALCMQWLQDKVHSIRDAAANNLKRLAEEFGPEWAMQHIVPQVLEMVNNPHYLYRMTILRAVSLLAPVMGSEITCSKLLPVVMTASKDRVPNIKFNVAKVLQSLIPIVDQSVVEKTIRPGLVELSEDPDVDVRFFANQALQSIDNVMMSS
B6: protein involved in RBOHD recycling via clathrin mediated endocytosis (At2g25430) (protein, UniProt Q8LF20 1-653)
chain: MAPSIRKAIGAVKDQTSIGIAKVASNMAPDLEVAIVKATSHDDDPASEKYIREILNLTSLSRGYILACVTSVSRRLSKTRDWVVALKALMLVHRLLNEGDPIFQEEILYSTRRGTRMLNMSDFRDEAHSSSWDHSAFVRTYAGYLDQRLELALFERKSGVSVNSGGNSSHHSNNDDRYGRGRDDFRSPPPRSYDYENGGGGGSDFRGDNNGYGGVPKRSRSYGDMTEMGGGGGGGGRDEKKVVTPLREMTPERIFGKMGHLQRLLDRFLSLRPTGLAKNSRMILIALYPVVRESFKLYADICEVLAVLLDKFFDMEYSDCVKAFDAYASAAKQIDELIAFYNWCKETGVARSSEYPEVQRITSKLLETLEEFVRDRAKRGKSPERKEIEAPPPVVEEEEPEPDMNEIKALPPPENYTPPPPPEPEPQPEKPQFTEDLVNLREDEVTADDQGNKFALALFAGPPGNNGKWEAFSSNGVTSAWQNPAAEPGKADWELALVETTSNLEKQTAALGGGFDNLLLNGMYDQGMVRQHVSTSQLTGGSASSVALPLPGKTNNQVLALPAPDGTVEKVNQDPFAASLTIPPPSYVQMAEMEKKQYLLSQEQQLWQQYQRDGMRGQASLAKMNTGPVPAYGMPPVNGMGPPPTGYYYNNPY
B7: WALL-ASSOCIATED RECEPTOR KINASE 8 (receptor, UniProt Q9SA25 24-720)
chain: STFPLALRNCSDHCGNVSVPYPFGIGKGCYKNKWFEIVCKSSSDQQPILLLPRIRRAVTSFNLGDPFSISVYNKFYIQSPLKHSGCPNRDGYSSSSLNLKGSPFFISENNKFTAVGCNNKAFMNVTGLQIVGCETTCGNEIRSYKGANTSCVGYKCCQMTIPPLLQLQVFDATVEKLEPNKQGCQVAFLTQFTLSGSLFTPPELMEYSEYTTIELEWRLDLSYMTSKRVLCKGNTFFEDSYQCSCHNGYEGNPYIPGGCQDIDECRDPHLNKCGKRKCVNVLGSYRCEKTWPAILSGTLSSGLLLLIFGMWLLCKANRKRKVAKQKRKFFQRNGGLLLQQQTSFLHGSVNRTKVFSSNDLENATDRFNASRILGQGGQGTVYKGMLEDGMIVAVKKSKALKEENLEEFINEIILLSQINHRNVVKILGCCLETEVPILVYEFIPNRNLFDHLHNPSEDFPMSWEVRLCIACEVADALSYLHSAVSIPIYHRDVKSTNILLDEKHRAKVSDFGISRSVAIDDTHLTTIVQGTIGYVDPEYLQSNHFTGKSDVYSFGVLLIELLTGEKPVSLLRRQEVRMLGAYFLEAMRNDRLHEILDARIKEECDREEVLAVAKLARRCLSLNSEHRPTMRDVFIELDRMQSKRKGTQSQAQNGEEHAHIQIAMPESMSLSYSSPNIVVENSSFSLDTKPLMPHKTQ
B8: WALL-ASSOCIATED RECEPTOR KINASE 2 (receptor, UniProt Q9LMP1 24-732)
chain: QPRKECQTRCGNVAVEYPFGTSPGCYYPGDESFNLTCNEQEKLFFGNMPVINMSLSGQLRVRLVRSRVCYDSQGKQTDYIAQRTTLGNFTLSELNRFTVVGCNSYAFLRTSGVEKYSTGCISICDSATTKNGSCSGEGCCQIPVPRGYSFVRVKPHSFHNHPTVHLFNPCTYAFLVEDGMFDFHALEDLNNLRNVTTFPVVLDWSIGDKTCKQVEYRGVCGGNSTCFDSTGGTGYNCKCLEGFEGNPYLPNGCQDINECISSRHNCSEHSTCENTKGSFNCNCPSGYRKDSLNSCTRKVRPEYFRWTQIFLGTTIGFSVIMLGISCLQQKIKHRKNTELRQKFFEQNGGGMLIQRVSGAGPSNVDVKIFTEKGMKEATNGYHESRILGQGGQGTVYKGILPDNSIVAIKKARLGNRSQVEQFINEVLVLSQINHRNVVKVLGCCLETEVPLLVYEFINSGTLFDHLHGSLYDSSLTWEHRLRIATEVAGSLAYLHSSASIPIIHRDIKTANILLDKNLTAKVADFGASRLIPMDKEQLTTIVQGTLGYLDPEYYNTGLLNEKSDVYSFGVVLMELLSGQKALCFERPHCPKNLVSCFASATKNNRFHEIIDGQVMNEDNQREIQEAARIAAECTRLMGEERPRMKEVAAELEALRVKTTKYKWSDQYRETGEIEHLLGVQILSAQGETSSSIGYDSIRNVTTLDIEAGR
B9: protein involved in RBOHD recycling via clathrin mediated endocytosis (At5g46630) (protein, UniProt O23140 1-438)
chain: MPVAASAIYFLNLRGDVLINRTYRDDVGGNMVDAFRTHIMQTKELGNCPVRQIGGCSFVYMRISNVYIVIVVSSNANVACGFKFVVEAVALFKSYFGGAFDEDAIRNNFVLIYELLDEIMDFGYPQNLSPEILKLYITQEGVRSPFSSKPKDKPVPNATLQVTGAVGWRREGLAYKKNEVFLDIVESVNLLMSSKGNVLRCDVTGKVLMKCFLSGMPDLKLGLNDKIGLEKESEMKSRPAKSGKTIELDDVTFHQCVNLTRFNSEKTVSFVPPDGEFELMKYRITEGVNLPFRVLPTIKELGRTRMEVNVKVKSVFGAKMFALGVVVKIPVPKQTAKTNFQVTTGRAKYNPSIDCLVWKIRKFPGQTESTLSAEIELISTMGEKKSWTRPPIQMEFQVPMFTASGLRVRFLKVWEKSGYNTVEWVRYITKAGSYEIRC

Biological target: HA-tagged RBOHD (RESPIRATORY BURST OXIDASE PROTEIN D) (Arabidopsis thaliana) (UniProt Q9FIJ0)
Assay: affinity purification with mass spectrometry

binding, binds:
B1
B2
B3
B4
B5
B6
B7
B8
B9
